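Cytotoxicity screen in which loss of a viable-cell protease fluorescent signal in LYMP1-003 lymphoblastoid cells is measured at 16 h. Each compound ran as a dilution series spanning 0.59 nM up to 92 µM. The value is a Hill-fitted AC50 for the fall in live-cell signal; a lower number means stronger cytotoxic potency. The calls come from curve class and a score scaled by fitted log AC50: scores of 40–100 are active, 1–39 inconclusive, and 0 inactive.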

Values are in nM. All entries here are filed as inconclusive. These entries are mostly ones the record files as inconclusive; other results of the assay are not listed here. Potencies fitted to partial, single-point or poorly fitting curves are rough. Some entries filed as inconclusive have a full curve. Activity scores are not listed here. An entry listed twice with the same setting is a separate test.

SMILES	potency (nM)	curve as filed
COC(=O)C1=C(C)NC(C)=C(C(=O)OC)C1c1ccccc1[N+](=O)[O-]	100000	cytotoxic, partial curve, poor fit
COc1cc2c(c(OC)c1OC)-c1ccc(OC)c(=O)cc1[C@@H](NC(C)=O)CC2	79.4	cytotoxic, full curve
Cc1c(O)cccc1C(=O)N[C@@H](CSc1ccccc1)[C@H](O)CN1C[C@H]2CCCC[C@H]2C[C@H]1C(=O)NC(C)(C)C	50118	cytotoxic, partial curve, poor fit
[O-][Br+2]([O-])O	39810	cytotoxic, partial curve
Cc1c2oc3c(C)ccc(C(=O)N[C@@H]4C(=O)N[C@H](C(C)C)C(=O)N5CCC[C@H]5C(=O)N(C)CC(=O)N(C)[C@@H](C(C)C)C(=O)O[C@@H]4C)c3nc-2c(C(=O)N[C@@H]2C(=O)N[C@H](C(C)C)C(=O)N3CCC[C@H]3C(=O)N(C)CC(=O)N(C)[C@@H](C(C)C)C(=O)O[C@@H]2C)c(N)c1=O	39.8	cytotoxic, full curve
O=S1OCC2C(CO1)C1(Cl)C(Cl)=C(Cl)C2(Cl)C1(Cl)Cl (stereo not shown)	39810	cytotoxic, partial curve, poor fit
C[C@H]1O[C@@H](O[C@H]2[C@@H](O)C[C@H](O[C@H]3[C@@H](O)C[C@H](O[C@H]4CC[C@@]5(C)[C@H](CC[C@@H]6[C@@H]5C[C@@H](O)[C@]5(C)[C@@H](C7=CC(=O)OC7)CC[C@]65O)C4)O[C@@H]3C)O[C@@H]2C)C[C@H](O)[C@@H]1O	316.2	cytotoxic, full curve
Oc1c(Cl)cc(Cl)c(Cl)c1Cc1c(O)c(Cl)cc(Cl)c1Cl	3981	cytotoxic, partial curve
ClC1=C(Cl)C2(Cl)C3C4C=CC(C4)C3C1(Cl)C2(Cl)Cl (stereo not shown)	39810	cytotoxic, partial curve
CC/C(=C(\c1ccccc1)c1ccc(OCCN(C)C)cc1)c1ccccc1	100000	cytotoxic, partial curve, poor fit
Oc1c(I)cc(Cl)c2cccnc12	79432	cytotoxic, partial curve, poor fit
COc1cc2c(c(OC)c1OC)-c1ccc(OC)c(=O)cc1[C@@H](NC(C)=O)CC2	63.1	cytotoxic, full curve
CN(C)c1ccc(N)cc1	19952	cytotoxic, partial curve
Cc1ccc(N)c(N)c1	6310	cytotoxic, partial curve
Oc1ccccc1O	6310	cytotoxic, full curve
[O-][Br+2]([O-])O	63095	cytotoxic, partial curve, poor fit
CN1CSC(=S)N(C)C1	79432	cytotoxic, partial curve, poor fit
Nc1ncn([C@@H]2O[C@H](CO)[C@@H](O)[C@H]2O)c(=O)n1	12589	cytotoxic, partial curve

Some entries from above, unchanged:

| SMILES | potency (nM) | curve as filed |
|---|---|---|
| `COC(=O)C1=C(C)NC(C)=C(C(=O)OC)C1c1ccccc1[N+](=O)[O-]` | 100000 | cytotoxic, partial curve, poor fit |
| `[O-][Br+2]([O-])O` | 63095 | cytotoxic, partial curve, poor fit |

The results are deposited in PubChem (AID962; NCATS, 2007).